Reference: patent publication US20190023792A1 (Innovent, published 2019)
Results are given in words; binding and its absence hold for the method and conditions named. Some entries that bind do so weakly or less than the wild type.

target: cynoPD-1_Fc (cyno, UniProt B0LAJ3 25-170); experiment: BLI (ForteBio), Fab in solution, cynoPD-1_Fc on sensor tip

binding | Binder
binds | xd-16 E, Fab format produced from IgG1 expressed in yeast (Fab, V domains shown, Fab produced from the yeast IgG1) VH: QVQLVQSGAEVKKPGSSVKVSCKASGGTFSSTAISWVRQAPGQGLEWMGGIWPSFGTANYARKFQGRVTITADESTSTAYMELSSLRSEDTAVYYCARAEYSSTGIFDYWGQGTLVTVSS VL: DIQMTQSPSSVSASVGDRVTITCRASQGISSWLAWYQQKPGKAPKLLISAASSLQSGVPSRFSGSGSGTDFTLTISSLQPEDFATYYCQQANHLPFTFGGGTKVEIK
binds | xd-16 C, Fab format produced from IgG1 expressed in yeast (Fab, V domains shown, Fab produced from the yeast IgG1) VH: QVQLVQSGAEVKKPGSSVKVSCKASGGTFSSTAISWVRQAPGQGLEWMGGIWPSFGTASYAQKFRGRVTITADESTSTAYMELSSLRSEDTAVYYCARAEYSSTGTFDYWGQGTLVTVSS VL: DIQMTQSPSSVSASVGDRVTITCRASQGISSWLAWYQQKPGKAPKLLISAASSLQSGVPSRFSGSGSGTDFTLTISSLQPEDFATYYCQQANHLPFTFGGGTKVEIK

Second part, the binder before the results:

Binder | binding
xd-16 B, Fab format produced from IgG1 expressed in yeast (Fab, V domains shown, Fab produced from the yeast IgG1) VH: QVQLVQSGAEVKKPGSSVKVSCKASGGTFSSTAISWVRQAPGQGLEWMGGIWPSFGTASYAQKFQGRVTITADESTSTAYMELSSLRSEDTAVYYCARAEYSSTGIFDYWGQGTLVTVSS VL: DIQMTQSPSSVSASVGDRVTITCRASQGISSWLAWYQQKPGKAPKLLISAASSLQSGVPSRFSGSGSGTDFTLTISSLQPEDFATYYCQQANHLPFTFGGGTKVEIK | binds
xd-16 D, Fab format produced from IgG1 expressed in yeast (Fab, V domains shown, Fab produced from the yeast IgG1) VH: QVQLVQSGAEVKKPGSSVKVSCKASGGTFSSTAISWVRQAPGQGLEWMGGIWPSFDTANYAQKFRGRVTITADESTSTAYMELSSLRSEDTAVYYCARAEYSSTGTFDYWGQGTLVTVSS VL: DIQMTQSPSSVSASVGDRVTITCRASQGISSWLAWYQQKPGKAPKLLISAASSLQSGVPSRFSGSGSGTDFTLTISSLQPEDFATYYCQQANHLPFTFGGGTKVEIK | binds
